In US20210269531A1 (TSINGHUA UNIVERSITY, published 2021):
These are yes or no findings as the source states them, for the method shown. One block for each binder: values may come before it.

Experiments:
[1] = biological target: TrkC; experiment: ELISA, protein coated on plate
[2] = biological target: TrkC; experiment: ELISA on coated TrkC, antibody at 10 nM, 1 nM and 0.1 nM

binding [2]: no binding (tested: 10 nM)
B1: TrkB-agoAb2908 (antibody, IgG1, V domains shown)
VH: QVQLQQSGPELVKPGASVKISCKASGYTFSSSWMNWVKQRPGQGLEWIGRIYPGDGHTNYNGKFKGKATLTADKSSSTAYMQLTSLTSVDSGVYFCARSGYGYGFDCWGQGTTLTVSS
VL: NIVLTQSPASLAVSLGQRATISCRASESVDNYGNSLMHWYQQKPGQPPKLLIYLASNLESGVPARFSGSGSRTDFTLTIDPVEADDAATYYCQQNNEDPPWTFGGGTKLEIKR
binding [1]: no binding (tested: 10 nM, 1 nM or 0.1 nM antibody)

binding [2]: no binding (tested: 10 nM)
B2: TrkB-agoAb303 (antibody, V domains shown)
VH: DVKLVESGGGLVKPGGSLKLSCAASGFTFSSYTMSWVRQTPEKRLEWVATISSGGDYTYFPDSVKGRFTMSRDNAKNALYLQMSSLKSEDTAMYYCTRESGRGDFDYWGQGTTLTVSS
VL: DVLMTQTPLSLPVSLGDQASISCRSSQNIVHSNGNTYLEWYLQKPGQSPNLLIYNVSNRFSGVPDRFSGSGSGTDFTLKISRVEAEDLGVYYCFQGSHFPWTFGGGTKLEIT
notes: Mouse monoclonal antibody
binding [1]: no binding (tested: 10 nM, 1 nM or 0.1 nM antibody)

binding [2]: no binding (tested: 10 nM)
B3: TrkB-agoAb1104 (antibody, IgG1, V domains shown)
VH: QVQLQQSGAELARPGASVKLSCKASGYTFTRYWMQWVKQRPGQGLEWIGAIYPGDGDTRYTQKFKGKATLTADKSSSTAYMQLSSLASEDSAVYYCAGSGLGRAWFTYWGQGTLVTVSA
VL: DIQMTQSPASLSASVGETVTITCRSSENIYSYLAWYQQKQGKSPQLLVYNAKTLAEGVPSRFSGSGSGTQFSLKINSLQPEDFGSYYCQHHYGPPYTFGGGTKLEIK
binding [1]: no binding (tested: 10 nM, 1 nM or 0.1 nM antibody)
